Measured values as given in the supplement of paper PMC12067093, “Discovery and optimisation of a covalent ligand for TRIM25 and its application to targeted protein ubiquitination” (Chemical Science, 2025).
This is one part of the list.

Chains of the proteins cited; added tags and fusions are not shown. Lines headed by an entry give the natural chain unless they say otherwise; changes in a name come on top.
UniProt O14617: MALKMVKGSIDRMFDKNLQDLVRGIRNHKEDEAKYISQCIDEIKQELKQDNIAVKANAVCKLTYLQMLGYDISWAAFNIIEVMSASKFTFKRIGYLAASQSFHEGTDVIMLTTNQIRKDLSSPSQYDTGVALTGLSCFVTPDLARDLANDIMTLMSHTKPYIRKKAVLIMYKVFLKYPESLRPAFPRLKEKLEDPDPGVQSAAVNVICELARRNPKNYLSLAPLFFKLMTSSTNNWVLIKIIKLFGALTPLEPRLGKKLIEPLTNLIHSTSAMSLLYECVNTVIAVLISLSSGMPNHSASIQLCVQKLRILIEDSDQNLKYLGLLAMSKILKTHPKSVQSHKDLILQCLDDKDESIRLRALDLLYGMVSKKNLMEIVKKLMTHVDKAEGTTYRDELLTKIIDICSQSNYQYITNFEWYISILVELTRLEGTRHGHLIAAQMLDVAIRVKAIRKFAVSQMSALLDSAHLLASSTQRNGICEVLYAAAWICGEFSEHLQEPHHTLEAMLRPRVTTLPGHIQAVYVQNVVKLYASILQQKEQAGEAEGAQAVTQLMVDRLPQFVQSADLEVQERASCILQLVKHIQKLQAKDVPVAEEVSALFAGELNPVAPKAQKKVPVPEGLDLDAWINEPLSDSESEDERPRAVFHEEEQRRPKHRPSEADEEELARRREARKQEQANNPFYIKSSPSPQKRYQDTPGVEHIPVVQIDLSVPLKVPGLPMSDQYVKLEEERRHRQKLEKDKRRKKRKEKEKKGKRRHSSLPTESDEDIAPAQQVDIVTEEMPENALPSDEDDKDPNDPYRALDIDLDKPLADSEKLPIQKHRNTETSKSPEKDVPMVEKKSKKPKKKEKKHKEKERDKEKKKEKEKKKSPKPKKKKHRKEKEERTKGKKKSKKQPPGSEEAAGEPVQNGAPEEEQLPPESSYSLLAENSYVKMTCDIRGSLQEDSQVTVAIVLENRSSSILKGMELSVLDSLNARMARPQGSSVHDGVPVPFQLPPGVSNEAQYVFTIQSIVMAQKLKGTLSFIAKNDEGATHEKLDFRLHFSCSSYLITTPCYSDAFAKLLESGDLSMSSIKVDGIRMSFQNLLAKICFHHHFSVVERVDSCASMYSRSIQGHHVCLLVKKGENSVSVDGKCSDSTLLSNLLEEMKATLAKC
UniProt Q10567: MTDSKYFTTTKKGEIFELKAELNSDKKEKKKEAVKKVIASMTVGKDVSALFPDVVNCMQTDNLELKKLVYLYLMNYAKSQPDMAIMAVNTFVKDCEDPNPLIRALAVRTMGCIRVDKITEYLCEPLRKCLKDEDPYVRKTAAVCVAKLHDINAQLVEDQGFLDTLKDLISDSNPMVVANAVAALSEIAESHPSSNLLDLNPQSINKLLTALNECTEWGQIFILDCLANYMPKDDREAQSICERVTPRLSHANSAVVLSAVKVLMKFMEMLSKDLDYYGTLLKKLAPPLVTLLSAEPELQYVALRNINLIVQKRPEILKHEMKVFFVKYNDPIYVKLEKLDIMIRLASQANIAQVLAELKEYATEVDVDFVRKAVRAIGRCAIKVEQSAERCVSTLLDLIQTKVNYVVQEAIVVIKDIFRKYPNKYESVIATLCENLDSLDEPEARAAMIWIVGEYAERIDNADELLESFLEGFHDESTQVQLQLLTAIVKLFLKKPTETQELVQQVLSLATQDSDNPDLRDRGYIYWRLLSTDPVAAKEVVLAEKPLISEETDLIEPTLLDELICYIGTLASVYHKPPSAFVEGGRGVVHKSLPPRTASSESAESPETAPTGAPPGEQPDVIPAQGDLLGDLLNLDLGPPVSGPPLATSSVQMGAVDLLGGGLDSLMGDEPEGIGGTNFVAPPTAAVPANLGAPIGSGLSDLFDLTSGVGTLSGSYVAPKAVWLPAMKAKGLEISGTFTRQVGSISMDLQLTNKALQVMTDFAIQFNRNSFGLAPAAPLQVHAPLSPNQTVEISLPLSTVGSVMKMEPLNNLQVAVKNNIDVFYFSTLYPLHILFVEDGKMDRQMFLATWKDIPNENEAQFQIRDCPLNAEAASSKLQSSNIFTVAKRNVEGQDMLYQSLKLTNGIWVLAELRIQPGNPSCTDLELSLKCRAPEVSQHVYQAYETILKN
UniProt P08133: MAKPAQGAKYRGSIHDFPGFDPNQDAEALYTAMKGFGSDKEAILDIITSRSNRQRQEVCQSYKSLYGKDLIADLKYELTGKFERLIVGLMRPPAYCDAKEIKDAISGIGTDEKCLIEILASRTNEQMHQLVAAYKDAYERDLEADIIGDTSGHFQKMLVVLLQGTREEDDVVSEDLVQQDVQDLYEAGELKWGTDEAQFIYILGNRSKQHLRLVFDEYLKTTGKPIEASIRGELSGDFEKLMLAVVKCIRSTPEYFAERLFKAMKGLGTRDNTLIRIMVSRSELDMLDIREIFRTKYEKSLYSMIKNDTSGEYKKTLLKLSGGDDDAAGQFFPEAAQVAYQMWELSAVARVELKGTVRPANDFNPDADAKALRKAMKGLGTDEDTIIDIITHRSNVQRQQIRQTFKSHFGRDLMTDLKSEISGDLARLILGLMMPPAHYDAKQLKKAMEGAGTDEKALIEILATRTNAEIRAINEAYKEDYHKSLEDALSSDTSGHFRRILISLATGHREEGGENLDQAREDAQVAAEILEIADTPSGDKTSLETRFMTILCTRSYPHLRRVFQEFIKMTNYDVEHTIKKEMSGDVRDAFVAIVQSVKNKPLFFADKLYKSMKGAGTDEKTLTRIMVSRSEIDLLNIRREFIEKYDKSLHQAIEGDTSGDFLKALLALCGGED
UniProt Q9BTT0: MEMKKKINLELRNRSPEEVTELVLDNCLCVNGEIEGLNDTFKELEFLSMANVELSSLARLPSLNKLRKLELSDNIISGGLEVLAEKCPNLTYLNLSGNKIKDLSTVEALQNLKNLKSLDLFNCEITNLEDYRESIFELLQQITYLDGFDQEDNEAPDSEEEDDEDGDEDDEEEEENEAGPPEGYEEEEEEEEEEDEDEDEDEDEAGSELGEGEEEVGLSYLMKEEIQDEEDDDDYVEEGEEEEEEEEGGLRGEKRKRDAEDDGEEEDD
UniProt Q8IWZ3: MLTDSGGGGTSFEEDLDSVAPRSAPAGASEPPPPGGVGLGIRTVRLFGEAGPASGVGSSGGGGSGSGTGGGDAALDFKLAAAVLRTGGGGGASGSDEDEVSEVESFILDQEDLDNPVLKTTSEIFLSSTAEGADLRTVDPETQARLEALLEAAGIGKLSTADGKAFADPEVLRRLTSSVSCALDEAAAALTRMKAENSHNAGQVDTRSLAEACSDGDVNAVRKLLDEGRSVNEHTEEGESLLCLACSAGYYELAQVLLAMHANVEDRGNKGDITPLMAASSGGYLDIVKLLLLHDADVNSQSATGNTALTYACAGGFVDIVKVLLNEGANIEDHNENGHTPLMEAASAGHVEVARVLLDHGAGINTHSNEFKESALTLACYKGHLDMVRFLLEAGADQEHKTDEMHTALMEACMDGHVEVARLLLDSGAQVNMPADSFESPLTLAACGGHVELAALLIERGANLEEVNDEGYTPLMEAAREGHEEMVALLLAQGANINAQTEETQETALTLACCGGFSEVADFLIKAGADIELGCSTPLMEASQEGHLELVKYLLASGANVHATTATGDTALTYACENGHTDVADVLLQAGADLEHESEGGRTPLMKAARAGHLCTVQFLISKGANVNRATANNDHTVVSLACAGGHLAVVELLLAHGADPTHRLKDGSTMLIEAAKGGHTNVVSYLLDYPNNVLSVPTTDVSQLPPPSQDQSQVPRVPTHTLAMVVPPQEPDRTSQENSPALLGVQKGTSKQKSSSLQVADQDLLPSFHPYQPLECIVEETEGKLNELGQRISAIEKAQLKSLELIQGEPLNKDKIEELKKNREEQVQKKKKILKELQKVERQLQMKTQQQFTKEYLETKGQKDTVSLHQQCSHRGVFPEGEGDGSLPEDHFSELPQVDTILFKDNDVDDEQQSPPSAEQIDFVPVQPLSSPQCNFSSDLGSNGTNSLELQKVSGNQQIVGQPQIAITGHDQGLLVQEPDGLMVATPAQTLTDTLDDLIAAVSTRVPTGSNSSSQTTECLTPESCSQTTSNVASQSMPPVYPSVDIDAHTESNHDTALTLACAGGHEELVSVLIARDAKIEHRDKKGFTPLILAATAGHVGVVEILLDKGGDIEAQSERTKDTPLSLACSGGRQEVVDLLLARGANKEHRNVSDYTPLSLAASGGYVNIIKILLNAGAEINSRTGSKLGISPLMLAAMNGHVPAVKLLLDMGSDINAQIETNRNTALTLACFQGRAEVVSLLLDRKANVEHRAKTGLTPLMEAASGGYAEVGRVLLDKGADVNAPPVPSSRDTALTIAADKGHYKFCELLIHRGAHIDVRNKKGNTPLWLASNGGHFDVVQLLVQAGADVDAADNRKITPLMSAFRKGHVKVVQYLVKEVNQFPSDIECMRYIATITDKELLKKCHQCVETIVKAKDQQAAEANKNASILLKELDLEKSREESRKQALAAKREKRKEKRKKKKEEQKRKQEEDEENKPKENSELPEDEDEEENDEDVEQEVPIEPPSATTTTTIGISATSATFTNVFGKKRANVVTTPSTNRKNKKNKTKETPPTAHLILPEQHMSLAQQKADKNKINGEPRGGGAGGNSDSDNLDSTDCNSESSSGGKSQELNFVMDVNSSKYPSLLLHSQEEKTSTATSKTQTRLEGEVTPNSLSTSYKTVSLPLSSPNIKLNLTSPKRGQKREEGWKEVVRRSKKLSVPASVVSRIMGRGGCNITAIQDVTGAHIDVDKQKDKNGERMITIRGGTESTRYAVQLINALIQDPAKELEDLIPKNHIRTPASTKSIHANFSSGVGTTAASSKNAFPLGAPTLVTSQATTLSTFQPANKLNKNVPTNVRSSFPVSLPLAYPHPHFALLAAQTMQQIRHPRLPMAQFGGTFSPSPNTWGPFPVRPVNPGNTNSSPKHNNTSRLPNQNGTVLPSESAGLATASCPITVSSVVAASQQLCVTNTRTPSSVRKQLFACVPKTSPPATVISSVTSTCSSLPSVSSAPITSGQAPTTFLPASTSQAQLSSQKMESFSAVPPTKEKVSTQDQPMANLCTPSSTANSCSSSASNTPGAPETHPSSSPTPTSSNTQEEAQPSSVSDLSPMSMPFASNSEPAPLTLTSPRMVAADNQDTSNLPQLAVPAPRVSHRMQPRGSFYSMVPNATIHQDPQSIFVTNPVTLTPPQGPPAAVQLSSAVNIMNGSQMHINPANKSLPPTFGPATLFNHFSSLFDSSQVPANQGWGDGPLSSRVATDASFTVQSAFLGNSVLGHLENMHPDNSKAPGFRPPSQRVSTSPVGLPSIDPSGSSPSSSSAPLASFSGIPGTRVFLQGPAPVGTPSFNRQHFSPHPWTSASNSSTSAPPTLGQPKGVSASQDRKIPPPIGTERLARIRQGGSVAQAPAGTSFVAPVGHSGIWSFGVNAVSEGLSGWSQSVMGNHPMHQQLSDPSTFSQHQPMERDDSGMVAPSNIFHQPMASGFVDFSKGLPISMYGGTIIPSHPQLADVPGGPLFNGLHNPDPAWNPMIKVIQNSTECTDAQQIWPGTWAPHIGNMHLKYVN
UniProt Q96GX9: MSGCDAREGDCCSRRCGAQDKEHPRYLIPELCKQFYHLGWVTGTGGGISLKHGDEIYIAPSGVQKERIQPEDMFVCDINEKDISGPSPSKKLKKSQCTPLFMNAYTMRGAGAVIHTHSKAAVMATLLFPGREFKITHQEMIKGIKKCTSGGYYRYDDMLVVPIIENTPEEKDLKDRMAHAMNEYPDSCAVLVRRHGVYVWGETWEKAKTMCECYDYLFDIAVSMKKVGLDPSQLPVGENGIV
UniProt Q8NAG6: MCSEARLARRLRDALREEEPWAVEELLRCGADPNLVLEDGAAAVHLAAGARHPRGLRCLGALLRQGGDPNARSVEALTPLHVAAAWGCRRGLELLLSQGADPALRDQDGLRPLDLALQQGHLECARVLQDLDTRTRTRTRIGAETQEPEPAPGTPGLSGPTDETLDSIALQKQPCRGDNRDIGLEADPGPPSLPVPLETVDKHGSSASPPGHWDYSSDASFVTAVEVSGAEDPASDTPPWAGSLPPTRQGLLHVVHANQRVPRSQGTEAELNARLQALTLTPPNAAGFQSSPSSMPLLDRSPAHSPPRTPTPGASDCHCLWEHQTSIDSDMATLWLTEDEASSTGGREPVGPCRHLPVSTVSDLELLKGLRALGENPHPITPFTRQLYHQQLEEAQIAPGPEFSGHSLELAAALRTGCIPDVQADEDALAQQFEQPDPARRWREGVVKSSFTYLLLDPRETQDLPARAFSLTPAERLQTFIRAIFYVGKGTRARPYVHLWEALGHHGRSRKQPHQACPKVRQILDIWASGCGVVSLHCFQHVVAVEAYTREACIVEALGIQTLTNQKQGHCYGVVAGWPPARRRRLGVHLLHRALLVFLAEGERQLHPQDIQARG

These targets were tested with CC1Cc2ccccc2N1C(=O)C1CCCN(C1)C(=O)CCl (mixture of isomers) [TRIM25 ligand 11 (diastereomer mixture)] (assay: probe-labelled cysteine peptide fold change vs DMSO (competition) (log2 fold change); higher = less target engagement (more negative = stronger competition)). Conditions: 10 µM; THP-1; incubation time: 4 h.
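Further: competitive chemoproteomic profiling in live THP-1 cells with an iodoacetamide desthiobiotin (IA-DTB) probe, comparing probe-labelled peptide intensities in compound-treated cells against DMSO-treated controls.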

Point of comparison: “AP3B1_O00203_215_STLVAGSVVMAFEEVCPDRIDLIHK (UniProt O00203)”, “probe-labelled cysteine peptide fold change” value -0.0389. Against it:
- ANKRD17_O75179_1622_ISSCSDESSNSNSSR (UniProt O75179) — higher, 0.371
- ANKRD27_Q96NW4_720_CAPAQK (UniProt Q96NW4) — higher, 0.0291
- APBB1IP_Q7Z5R6_381_YKAPTDYCFVLK (UniProt Q7Z5R6) — lower, -0.0427
- AP2M1_Q96CW1_251_QSIAIDDCTFHQCVR (UniProt Q96CW1) — higher, 0.0886
- AP3D1_O14617_1089_ICFHHHFSVVER (UniProt O14617) — higher, 0.489
- ANO6_Q4KMQ2_105_RQAYESNLICHGLQLEATR (UniProt Q4KMQ2) — lower, -0.0665
- AP1B1_Q10567-3_914_IQPGNPSCTLSLK (UniProt Q10567) — higher, 0.162
- ANKRD49_Q8WVL7_149_AAYSGHLDIVQELIAQGADVHAVTVDGWTPLHSACK (UniProt Q8WVL7) — lower, -0.25
- AP2A1_O95782_283_LVECLETVLNK (UniProt O95782) — lower, -0.127
- ANXA6_P08133_59_QEVCQSYK (UniProt P08133) — lower, -0.0813
- APAF1_O14727_1083+1091_DFVCHQGTVLSCDISHDATK (UniProt O14727) — higher, 0.161
- ANKLE2_Q86XL3_454_TPEDVICER (UniProt Q86XL3) — lower, -0.0494
- APEH_P13798_152_HGPVYEDDCFGCLSWSHSETHLLYVAEK (UniProt P13798) — higher, 0.242
- AP2A1_O95782_215_VVHLLNDQHMGVVTAAVSLITCLCK (UniProt O95782) — lower, -0.114
- ANP32E_Q9BTT0_87_CPNLTYLNLSGNK (UniProt Q9BTT0) — lower, -0.0948
- APBB1IP_Q7Z5R6_213_THCDCNVDWCLYEIYPELQIER (UniProt Q7Z5R6) — higher, 0.00469
- ANXA6_P08133_59_QRQEVCQSYK (UniProt P08133) — higher, 0.0235
- ANKRD44_Q8N8A2_854_TPLHAAAFADHVECLQLLLR (UniProt Q8N8A2) — higher, 0.0437
- ANKHD1_Q8IWZ3-6_2579_VPAGVQELTHCPDTPLLPPSDSR (UniProt Q8IWZ3) — lower, -0.114
- AP3D1_O14617_137_DLSSPSQYDTGVALTGLSCFVTPDLAR (UniProt O14617) — lower, -0.0501
- AP2A1_O95782_213_VVHLLNDQHMGVVTAAVSLITCLCK (UniProt O95782) — lower, -0.123
- APAF1_O14727_538_DCAVSENFQEFLSLNGHLLGR (UniProt O14727) — higher, 0.0289
- ANLN_Q9NQW6_978_CQVNSSVEER (UniProt Q9NQW6) — higher, 0.215
- APBB1IP_Q7Z5R6_215_THCDCNVDWCLYEIYPELQIER (UniProt Q7Z5R6) — lower, -0.235
- APAF1_O14727_177_DHSLLEGCFPGGVHWVSVGK (UniProt O14727) — lower, -0.0684
- AP3D1_O14617_1133_CSDSTLLSNLLEEMK (UniProt O14617) — higher, 0.0919
- ANLN_Q9NQW6_309_SCEGQNPELLPK (UniProt Q9NQW6) — higher, -0.018
- APIP_Q96GX9_97_SQCTPLFMNAYTMR (UniProt Q96GX9) — higher, 0.0257
- ANKFY1_Q9P2R3_460_GSHTDAPDTATGNCLLQR (UniProt Q9P2R3) — lower, -0.0416
- ANKRD28_O15084_201_LLVSHGAEVTCK (UniProt O15084) — higher, 0.0847
- ANXA11_P50995_384_FNAVLCSR (UniProt P50995) — higher, -0.0174
- ANKRD44_Q8N8A2_368+388_CGIHSMFPLHLAALNAHSDCCR (UniProt Q8N8A2) — lower, -0.463
- ANKRD16_Q6P6B7_32+43_EELQAAGGCPGPAGDTLLHCAAR (UniProt Q6P6B7) — lower, -0.232
- ANKRD44_Q8N8A2_914_DLNTPLHLACSK (UniProt Q8N8A2) — lower, -0.0625
- ANKLE1_Q8NAG6_29_CGADPNLVLEDGAAAVHLAAGAR (UniProt Q8NAG6) — higher, 0.0123
- APAF1_O14727_662+663_AHEDEVLCCAFSTDDR (UniProt O14727) — higher, 0.223
- ANKLE2_Q86XL3_702_NGLCHPLNHSR (UniProt Q86XL3) — lower, -0.309

Same assay, conditions: 50 µM; THP-1; incubation time: 4 h

Point of comparison: “APIP_Q96GX9_97_SQCTPLFMNAYTMR (UniProt Q96GX9)”, “probe-labelled cysteine peptide fold change” value 0.00999. Against it:
- ANKRD17_O75179_1622_ISSCSDESSNSNSSR (UniProt O75179) — higher, 0.268
- ANKRD27_Q96NW4_720_CAPAQK (UniProt Q96NW4) — lower, -0.159
- APBB1IP_Q7Z5R6_381_YKAPTDYCFVLK (UniProt Q7Z5R6) — lower, -0.0553
- AP2M1_Q96CW1_251_QSIAIDDCTFHQCVR (UniProt Q96CW1) — higher, 0.0762
- AP3D1_O14617_1089_ICFHHHFSVVER (UniProt O14617) — higher, 0.463
- ANO6_Q4KMQ2_105_RQAYESNLICHGLQLEATR (UniProt Q4KMQ2) — higher, 0.106
- AP1B1_Q10567-3_914_IQPGNPSCTLSLK (UniProt Q10567) — higher, 0.142
- ANKRD49_Q8WVL7_149_AAYSGHLDIVQELIAQGADVHAVTVDGWTPLHSACK (UniProt Q8WVL7) — higher, 0.131
- AP2A1_O95782_283_LVECLETVLNK (UniProt O95782) — lower, -0.153
- ANXA6_P08133_59_QEVCQSYK (UniProt P08133) — lower, -0.0296
- APAF1_O14727_1083+1091_DFVCHQGTVLSCDISHDATK (UniProt O14727) — higher, 0.0542
- ANKLE2_Q86XL3_454_TPEDVICER (UniProt Q86XL3) — lower, -0.0269
- APEH_P13798_152_HGPVYEDDCFGCLSWSHSETHLLYVAEK (UniProt P13798) — lower, -0.0644
- AP2A1_O95782_215_VVHLLNDQHMGVVTAAVSLITCLCK (UniProt O95782) — higher, 0.0617
- ANP32E_Q9BTT0_87_CPNLTYLNLSGNK (UniProt Q9BTT0) — lower, -0.106
- APBB1IP_Q7Z5R6_213_THCDCNVDWCLYEIYPELQIER (UniProt Q7Z5R6) — lower, -0.008
- ANXA6_P08133_59_QRQEVCQSYK (UniProt P08133) — higher, 0.014
- ANKRD44_Q8N8A2_854_TPLHAAAFADHVECLQLLLR (UniProt Q8N8A2) — higher, 0.148
- AP2B1_P63010_123_ITEYLCEPLRK (UniProt P63010) — lower, -0.0367
- ANKHD1_Q8IWZ3-6_2579_VPAGVQELTHCPDTPLLPPSDSR (UniProt Q8IWZ3) — lower, -0.49
- AP3D1_O14617_137_DLSSPSQYDTGVALTGLSCFVTPDLAR (UniProt O14617) — lower, -0.164
- AP2A1_O95782_213_VVHLLNDQHMGVVTAAVSLITCLCK (UniProt O95782) — higher, 0.0848
- APAF1_O14727_538_DCAVSENFQEFLSLNGHLLGR (UniProt O14727) — lower, -0.0578
- ANLN_Q9NQW6_978_CQVNSSVEER (UniProt Q9NQW6) — higher, 0.247
- APBB1IP_Q7Z5R6_215_THCDCNVDWCLYEIYPELQIER (UniProt Q7Z5R6) — lower, -0.124
- APAF1_O14727_177_DHSLLEGCFPGGVHWVSVGK (UniProt O14727) — lower, -0.0879
- AP3D1_O14617_1133_CSDSTLLSNLLEEMK (UniProt O14617) — higher, 0.0779
- ANLN_Q9NQW6_309_SCEGQNPELLPK (UniProt Q9NQW6) — lower, -0.275
- ANKFY1_Q9P2R3_460_GSHTDAPDTATGNCLLQR (UniProt Q9P2R3) — lower, -0.142
- AP3B1_O00203_215_STLVAGSVVMAFEEVCPDRIDLIHK (UniProt O00203) — higher, 0.0382
- ANKRD28_O15084_201_LLVSHGAEVTCK (UniProt O15084) — higher, 0.138
- ANXA11_P50995_384_FNAVLCSR (UniProt P50995) — lower, -0.0325
- ANKRD44_Q8N8A2_368+388_CGIHSMFPLHLAALNAHSDCCR (UniProt Q8N8A2) — lower, -0.104
- ANKRD16_Q6P6B7_32+43_EELQAAGGCPGPAGDTLLHCAAR (UniProt Q6P6B7) — lower, -0.161
- ANKRD44_Q8N8A2_914_DLNTPLHLACSK (UniProt Q8N8A2) — lower, -0.0939
- ANKLE1_Q8NAG6_29_CGADPNLVLEDGAAAVHLAAGAR (UniProt Q8NAG6) — higher, 0.1
- APAF1_O14727_662+663_AHEDEVLCCAFSTDDR (UniProt O14727) — higher, 0.213
- ANKLE2_Q86XL3_702_NGLCHPLNHSR (UniProt Q86XL3) — lower, -0.396
